The source gives many values for each of these; only a part stands here.
Tested on: CHD (death from CHD, nonfatal MI, or revascularization)
Assay: WOSCOPS: SNP by pravastatin treatment interaction, logistic regression (synergy index), CHD endpoint
Assay type: in vivo, human
Description: CARE was a secondary prevention trial and WOSCOPS was a primary prevention trial.
The CHD endpoint was defined in the analyses herein of CARE as a composite endpoint of fatal CHD, definite non-fatal MI, or revascularization, and was defined in the analyses herein of WOSCOPS as a composite endpoint of death from CHD, nonfatal MI, or revascularization. In both the CARE and WOSCOPS analyses herein, the CVD endpoint was defined as a composite endpoint of CHD or stroke. […] Revascularization, which can include percutaneous transluminal coronary angioplasty (PTCA), stent placement, and coronary artery bypass graft (CABG), are medical interventions that indicate the presence of CHD.
Cohort and case-only study designs were used to identify SNPs associated with response to statin treatment.
For each SNP, a logistic regression model having treatment status as the dependent variable and SNP as the independent predictor variable was performed, with terms for age, sex and race included in the model as covariates. The anti-log of the regression coefficient corresponding to the SNP is an estimate of the synergy index (SI) (Davis et al., “Imputing gene-treatment interactions when the genotype distribution is unknown using case-only and putative placebo analyses-a new method for the Genetics of Hypertension Associated Treatment (GenHAT) study”, Statistics in Medicine 23: (2004), pages 2413-2427). The SI is a ratio of odds ratios: for example in the CARE and WOSCOPS studies, the SI represents the factor by which the odds-ratio of statin treatment, compared with placebo, among major homozygous individuals is multiplied by in order to obtain the odds-ratio of treatment vs. placebo among heterozygous individuals; and multiplied by a second time to obtain the odds-ratio of treatment vs. placebo in minor homozygous individuals. The case-only study design results in a valid estimate of the SI under the assumption that genotype and treatment are independent in the population. In a randomized clinical trial, genotype and treatment are independent by design. The p-value for the regression coefficient corresponding to the SNP results from a test of the null hypothesis that the regression coefficient is equal to zero (SI is equal to one) and thus small p-values indicate the SI is unlikely equal to one and that the effect of treatment likely differs by genotype. […]

## CC[C@H](C)C(=O)O[C@H]1C[C@H](O)C=C2C=C[C@H](C)[C@H](CC[C@@H](O)C[C@@H](O)CC(=O)O)[C@H]21 [Pravastatin, pravastatin]
WOSCOPS, rs3806024 allele T, model ADD, Imputed
  OR: 2.274
WOSCOPS, rs3806024 allele T, model DOM, Imputed
  OR: 2.756
WOSCOPS, rs3847825 allele G, model ADD, Imputed
  OR: 0.7535
WOSCOPS, rs3852001 allele C, model REC, Genotyped
  OR: 2.797
WOSCOPS, rs3852002 allele G, model REC, Imputed
  OR: 2.797
WOSCOPS, rs3852003 allele A, model REC, Imputed
  OR: 2.797
WOSCOPS, rs3942254 allele T, model DOM, Imputed
  OR: 0.5955
WOSCOPS, rs3945085 allele A, model DOM, Imputed
  OR: 1.391
WOSCOPS, rs4029119 allele G, model ADD, Imputed
  OR: 0.1157
WOSCOPS, rs4029119 allele G, model DOM, Imputed
  OR: 0.1157
WOSCOPS, rs4146972 allele T, model DOM, Genotyped
  OR: 1.672
WOSCOPS, rs4259369 allele C, model REC, Imputed
  OR: 0.4161
WOSCOPS, rs4273613 allele T, model ADD, Imputed
  OR: 0.235
WOSCOPS, rs4273613 allele T, model DOM, Imputed
  OR: 0.235
WOSCOPS, rs4294022 allele C, model DOM, Imputed
  OR: 0.5507
WOSCOPS, rs4310554 allele C, model DOM, Genotyped
  OR: 1.609
WOSCOPS, rs4315598 allele T, model ADD, Imputed
  OR: 1.42
WOSCOPS, rs4370878 allele G, model DOM, Imputed
  OR: 1.391
WOSCOPS, rs4436200 allele C, model ADD, Imputed
  OR: 0.5856
WOSCOPS, rs4444612 allele G, model ADD, Imputed
  OR: 1.429
WOSCOPS, rs4450660 allele C, model DOM, Imputed
  OR: 1.719
WOSCOPS, rs4463950 allele C, model DOM, Imputed
  OR: 0.5555
WOSCOPS, rs4509702 allele C, model DOM, Imputed
  OR: 1.391
WOSCOPS, rs4533379 allele G, model ADD, Imputed
  OR: 1.429
WOSCOPS, rs4569984 allele A, model DOM, Imputed
  OR: 0.5254
WOSCOPS, rs4570530 allele C, model DOM, Imputed
  OR: 1.391
WOSCOPS, rs4571583 allele T, model DOM, Imputed
  OR: 0.5381
WOSCOPS, rs4586678 allele A, model DOM, Imputed
  OR: 1.719
WOSCOPS, rs4615971 allele C, model DOM, Imputed
  OR: 1.351
WOSCOPS, rs4629229 allele G, model DOM, Imputed
  OR: 0.6821
WOSCOPS, rs4641552 allele A, model ADD, Imputed
  OR: 0.5381
WOSCOPS, rs4682527 allele C, model DOM, Imputed
  OR: 1.785
WOSCOPS, rs4688632 allele G, model REC, Imputed
  OR: 0.656
WOSCOPS, rs4702720 allele A, model ADD, Imputed
  OR: 0.6922
WOSCOPS, rs4702720 allele A, model DOM, Imputed
  OR: 0.7001
WOSCOPS, rs4714484 allele A, model ADD, Imputed
  OR: 0.5988
WOSCOPS, rs4714484 allele A, model DOM, Imputed
  OR: 0.5097
WOSCOPS, rs4725142 allele G, model REC, Genotyped
  OR: 0.3868
WOSCOPS, rs4725144 allele G, model REC, Imputed
  OR: 0.3868
WOSCOPS, rs4760785 allele A, model ADD, Imputed
  OR: 0.7632
WOSCOPS, rs4760785 allele A, model DOM, Imputed
  OR: 0.5772
WOSCOPS, rs4760894 allele T, model ADD, Imputed
  OR: 0.7632
WOSCOPS, rs4760894 allele T, model DOM, Imputed
  OR: 0.5772
WOSCOPS, rs4760895 allele A, model ADD, Imputed
  OR: 0.7632
WOSCOPS, rs4760895 allele A, model DOM, Imputed
  OR: 0.5772
WOSCOPS, rs4767184 allele C, model ADD, Imputed
  OR: 0.7432
WOSCOPS, rs4773487 allele T, model ADD, Imputed
  OR: 0.5534
WOSCOPS, rs4780547 allele G, model REC, Imputed
  OR: 0.5086
WOSCOPS, rs4836502 allele T, model DOM, Imputed
  OR: 0.6021
WOSCOPS, rs4836507 allele C, model DOM, Imputed
  OR: 0.6042
WOSCOPS, rs4851531 allele T, model DOM, Imputed
  OR: 0.5595
WOSCOPS, rs4879931 allele G, model ADD, Imputed
  OR: 0.7554
WOSCOPS, rs4976276 allele T, model ADD, Imputed
  OR: 1.499
WOSCOPS, rs4977681 allele C, model REC, Imputed
  OR: 2.078
WOSCOPS, rs4986197 allele G, model ADD, Imputed
  OR: 1.42
WOSCOPS, rs4986220 allele T, model ADD, Imputed
  OR: 1.437
WOSCOPS, rs5756669 allele C, model DOM, Imputed
  OR: 1.639
WOSCOPS, rs6033138 allele C, model ADD, Imputed
  OR: 1.429
WOSCOPS, rs6040619 allele C, model ADD, Imputed
  OR: 1.432
WOSCOPS, rs6040625 allele T, model ADD, Imputed
  OR: 1.45
WOSCOPS, rs6040630 allele A, model ADD, Imputed
  OR: 1.444
WOSCOPS, rs6040633 allele A, model ADD, Imputed
  OR: 1.429
WOSCOPS, rs6040634 allele T, model ADD, Imputed
  OR: 1.429
WOSCOPS, rs6075209, dom, CaseOnly, CHD, pravastatin vs placebo
  OR: 0.68
WOSCOPS, rs7094941, add, CaseOnly, CHD, pravastatin vs placebo
  OR: 0.66
WOSCOPS, rs7616936, dom, CaseOnly, CHD, pravastatin vs placebo
  OR: 2.30
WOSCOPS, rs7910196, add, CaseOnly, CHD, pravastatin vs placebo
  OR: 1.72
WOSCOPS, rs8109631, dom, CaseOnly, CHD, pravastatin vs placebo
  OR: 1.54
WOSCOPS, rs9436636, add, CaseOnly, CHD, pravastatin vs placebo
  OR: 1.36
WOSCOPS, rs10103297, dom, CaseOnly, CHD, pravastatin vs placebo
  OR: 2.74
WOSCOPS, rs10875941, dom, CaseOnly, CHD, pravastatin vs placebo
  OR: 0.51
WOSCOPS, rs11082492, add, CaseOnly, CHD, pravastatin vs placebo
  OR: 1.76
WOSCOPS, rs12657484, dom, CaseOnly, CHD, pravastatin vs placebo
  OR: 1.76
WOSCOPS, rs13314266, add, CaseOnly, CHD, pravastatin vs placebo
  OR: 0.40
WOSCOPS, rs16861467, add, CaseOnly, CHD, pravastatin vs placebo
  OR: 0.37
WOSCOPS, rs17716275, dom, CaseOnly, CHD, pravastatin vs placebo
  OR: 2.26
rs2574, Source caseonly
  WOSCOPS OR: 1.54
rs4773, Source caseonly
  WOSCOPS OR: 0.77
rs7508, Source caseonly
  WOSCOPS OR: 1.39
rs9857, Source caseonly
  WOSCOPS OR: 0.83
rs9960, Source caseonly
  WOSCOPS OR: 1.41
rs198460, allele G, REC, Genotyped
  OR: 2.115
rs198460, Source cohort
  WOSCOPS OR: 1.54
rs198464, Source caseonly
  WOSCOPS OR: 2.04
rs238250, Source cohort
  WOSCOPS OR: 1.43
rs251817, Source caseonly
  WOSCOPS OR: 2.98
rs271046, Source caseonly
  WOSCOPS OR: 0.58
rs475420, Source caseonly
  WOSCOPS OR: 1.37
rs494111, Source caseonly
  WOSCOPS OR: 0.59
rs498657, Source caseonly
  WOSCOPS OR: 1.18
rs603940, allele G, REC, Genotyped
  OR: 0.5858
rs613799, allele (A1) C, model DOM, Imputed, WOSCOPS
  OR: 1.45
rs619825, Source caseonly
  WOSCOPS OR: 0.61
rs644041, allele (A1) G, model ADD, Imputed, WOSCOPS
  OR: 1.555
rs644041, allele (A1) G, model DOM, Imputed, WOSCOPS
  OR: 1.611
rs646749, Source caseonly
  WOSCOPS OR: 0.62
rs647645, allele (A1) C, model ADD, Imputed, WOSCOPS
  OR: 0.7227
rs647645, allele (A1) C, model REC, Imputed, WOSCOPS
  OR: 0.4895
rs658108, allele (A1) A, model DOM, Imputed, WOSCOPS
  OR: 1.477
rs668732, allele (A1) A, model DOM, Imputed, WOSCOPS
  OR: 1.56
rs671041, allele (A1) A, model DOM, Imputed, WOSCOPS
  OR: 1.507
rs687047, allele (A1) C, model ADD, Imputed, WOSCOPS
  OR: 0.7129
rs688358, allele (A1) A, model ADD, Imputed, WOSCOPS
  OR: 0.6788
rs892162, Source caseonly
  WOSCOPS OR: 0.47
rs974950, Source caseonly
  WOSCOPS OR: 0.56
rs996022, Source caseonly
  WOSCOPS OR: 0.62
rs1003148, allele C, ADD, Imputed
  OR: 0.7355
rs1003148, allele C, REC, Imputed
  OR: 0.7366
rs1003322, Source caseonly
  WOSCOPS OR: 1.52
rs1008705, allele C, DOM, Imputed
  OR: 1.451
rs1012924, allele G, ADD, Imputed
  OR: 0.5758
rs1012924, allele G, DOM, Imputed
  OR: 0.554
rs1016030 allele G ADD Genotyped
  OR: 1.554
rs1017558, allele A, REC, Imputed
  OR: 2.201
rs1030006 allele G, model REC, Imputed
  OR: 1.973
rs1031811 allele A, model REC, Imputed
  OR: 1.901
rs1032188, allele G, REC, Imputed
  OR: 0.2613
rs1045916, Source cohort
  WOSCOPS OR: 0.80
rs1065639, allele C, DOM, Imputed
  OR: 1.785
rs1116596, allele T, DOM, Imputed
  OR: 0.6113
rs1129570, Source caseonly
  WOSCOPS OR: 1.58
rs1136046, Source caseonly
  WOSCOPS OR: 1.16
rs1149350, allele A, DOM, Imputed
  OR: 1.97
rs1150143, allele G, DOM, Imputed
  OR: 1.782
rs1155875, Source caseonly
  WOSCOPS OR: 0.66
rs1266489, Source caseonly
  WOSCOPS OR: 0.74
rs1344081, Source cohort
  WOSCOPS OR: 1.58
rs1352236, Source caseonly
  WOSCOPS OR: 0.27

Reference: US10563263B2, “Genetic polymorphisms associated with statin response and cardiovascular diseases, methods of detection and uses thereof” (CELERA CORPORATION, priority 2010, dated 2020)
